From paper PMC9637104
No constants are given. Whether binding was seen depends on the method and setting. Binding seen in cells or lysates may run through a third protein. These calls come from enrichment with a bait or labelling near it, and not all partners need be listed.

Sequences of proteins named here, by UniProt entry; tags and fusion partners are left off.
UniProt Q8C9H6: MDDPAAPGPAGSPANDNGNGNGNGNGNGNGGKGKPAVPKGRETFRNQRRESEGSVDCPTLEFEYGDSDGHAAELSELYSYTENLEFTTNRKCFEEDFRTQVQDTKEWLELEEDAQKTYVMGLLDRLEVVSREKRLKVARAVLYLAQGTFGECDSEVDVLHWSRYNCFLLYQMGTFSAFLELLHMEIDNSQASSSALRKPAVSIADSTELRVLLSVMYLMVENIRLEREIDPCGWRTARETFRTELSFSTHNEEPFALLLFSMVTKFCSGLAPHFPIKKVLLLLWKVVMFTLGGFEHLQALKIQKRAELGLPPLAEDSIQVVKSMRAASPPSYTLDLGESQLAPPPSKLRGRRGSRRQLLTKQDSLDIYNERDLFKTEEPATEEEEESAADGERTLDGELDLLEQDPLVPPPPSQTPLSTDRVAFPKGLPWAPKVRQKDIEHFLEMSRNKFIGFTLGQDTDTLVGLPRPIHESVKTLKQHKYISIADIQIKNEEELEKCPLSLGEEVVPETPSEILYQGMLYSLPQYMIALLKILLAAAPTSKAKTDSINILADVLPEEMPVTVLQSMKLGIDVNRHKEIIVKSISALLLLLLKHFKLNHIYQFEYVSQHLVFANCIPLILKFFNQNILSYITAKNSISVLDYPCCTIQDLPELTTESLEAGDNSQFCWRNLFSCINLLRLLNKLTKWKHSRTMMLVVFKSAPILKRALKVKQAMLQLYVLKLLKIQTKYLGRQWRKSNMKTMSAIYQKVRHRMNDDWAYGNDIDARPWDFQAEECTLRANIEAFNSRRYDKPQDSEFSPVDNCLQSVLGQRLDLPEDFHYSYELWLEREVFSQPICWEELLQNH
UniProt O09106: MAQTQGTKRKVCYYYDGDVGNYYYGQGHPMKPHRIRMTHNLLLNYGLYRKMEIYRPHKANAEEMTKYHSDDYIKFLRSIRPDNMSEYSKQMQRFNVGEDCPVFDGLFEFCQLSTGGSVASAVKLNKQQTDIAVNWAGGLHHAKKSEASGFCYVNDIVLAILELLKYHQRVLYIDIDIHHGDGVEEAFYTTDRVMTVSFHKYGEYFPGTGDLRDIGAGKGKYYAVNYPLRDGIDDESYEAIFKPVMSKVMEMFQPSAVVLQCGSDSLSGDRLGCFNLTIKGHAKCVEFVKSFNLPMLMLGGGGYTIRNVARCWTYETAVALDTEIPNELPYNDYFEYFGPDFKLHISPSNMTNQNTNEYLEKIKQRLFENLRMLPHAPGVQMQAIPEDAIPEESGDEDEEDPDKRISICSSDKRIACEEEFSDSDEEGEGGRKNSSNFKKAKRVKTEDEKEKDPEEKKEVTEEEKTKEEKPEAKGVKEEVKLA
UniProt Q61686: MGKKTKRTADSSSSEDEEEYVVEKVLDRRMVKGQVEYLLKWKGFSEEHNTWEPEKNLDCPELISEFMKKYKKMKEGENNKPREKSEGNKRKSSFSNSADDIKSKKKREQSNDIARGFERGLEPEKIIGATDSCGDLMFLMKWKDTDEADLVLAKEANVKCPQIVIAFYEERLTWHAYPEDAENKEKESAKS

Biological target: Strip2-turboGFP (mouse) (UniProt Q8C9H6)
Experiment: affinity purification with mass spectrometry; TurboGFP-Trap agarose on RIPA lysates of Strip2-turboGFP ESCs (0-day ESCs, 4-day and 16-day EBs), 1 h at 4 °C; GFP-only ESCs as control; label-free quantification

| binding | Substance |
| --- | --- |
| binds | DNA (cytosine-5)-methyltransferase 3 beta (Dnmt3b) (from UniProt O88509 1-859) |
| binds | Hadc1 (from UniProt O09106 1-482) |
| binds | heterochromatin protein 1 (HP1; also known as Cbx5) (from UniProt Q61686 1-191) |
